# PMC7862700
# The list shows a part of the results, in another mix than the full data. For part of these data: At the low end of the ranking the order means little. The list shows a part of the results. For part of these data: Construct or isoform of the protein are uncertain.
# How the values were obtained:
# Assay in all cases: DAPPL (digital affinity profiling via proximity ligation, sequencing)
# Conditions in all cases: 10 mM Tris-HCl pH 7.5, 50 mM NaCl, 1 mM DTT, 4% glycerol, room temperature, 30 min; GST-TFs on glutathione beads, 16-mer random dsDNA library, 0.1% …; high values mean tight binding; double strand, one strand shown; scale: fold enrichment (6-mer frequency, TF over GST control)
# [1] = molecular target: T1, GABPA (UniProt Q06546)
# T1 sequence: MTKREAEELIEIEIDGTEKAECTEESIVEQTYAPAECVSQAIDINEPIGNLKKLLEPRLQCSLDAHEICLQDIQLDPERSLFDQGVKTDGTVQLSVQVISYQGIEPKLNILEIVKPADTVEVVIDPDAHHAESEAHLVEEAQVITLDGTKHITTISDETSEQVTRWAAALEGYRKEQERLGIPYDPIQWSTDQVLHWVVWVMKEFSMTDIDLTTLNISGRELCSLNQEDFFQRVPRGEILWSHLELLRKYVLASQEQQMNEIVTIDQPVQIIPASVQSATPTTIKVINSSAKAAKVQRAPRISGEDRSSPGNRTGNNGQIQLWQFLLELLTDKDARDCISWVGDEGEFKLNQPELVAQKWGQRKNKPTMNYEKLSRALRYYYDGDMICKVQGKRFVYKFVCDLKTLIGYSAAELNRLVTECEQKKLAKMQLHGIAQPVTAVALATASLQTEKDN
# [2] = molecular target: T2, ETS1 (UniProt P14921)
# T2 sequence: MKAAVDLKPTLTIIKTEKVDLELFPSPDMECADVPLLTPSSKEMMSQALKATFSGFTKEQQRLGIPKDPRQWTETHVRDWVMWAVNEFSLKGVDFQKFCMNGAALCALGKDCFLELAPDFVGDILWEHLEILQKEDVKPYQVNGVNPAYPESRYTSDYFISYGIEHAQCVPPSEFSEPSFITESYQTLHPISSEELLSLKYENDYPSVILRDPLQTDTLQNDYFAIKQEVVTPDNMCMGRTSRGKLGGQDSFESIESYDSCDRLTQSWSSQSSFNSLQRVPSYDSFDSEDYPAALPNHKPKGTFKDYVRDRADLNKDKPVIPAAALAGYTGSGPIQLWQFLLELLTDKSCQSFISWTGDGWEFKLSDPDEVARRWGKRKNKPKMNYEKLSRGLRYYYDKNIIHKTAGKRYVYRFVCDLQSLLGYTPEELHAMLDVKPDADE
# [3] = molecular target: T3, SPDEF (UniProt O95238)
# T3 sequence: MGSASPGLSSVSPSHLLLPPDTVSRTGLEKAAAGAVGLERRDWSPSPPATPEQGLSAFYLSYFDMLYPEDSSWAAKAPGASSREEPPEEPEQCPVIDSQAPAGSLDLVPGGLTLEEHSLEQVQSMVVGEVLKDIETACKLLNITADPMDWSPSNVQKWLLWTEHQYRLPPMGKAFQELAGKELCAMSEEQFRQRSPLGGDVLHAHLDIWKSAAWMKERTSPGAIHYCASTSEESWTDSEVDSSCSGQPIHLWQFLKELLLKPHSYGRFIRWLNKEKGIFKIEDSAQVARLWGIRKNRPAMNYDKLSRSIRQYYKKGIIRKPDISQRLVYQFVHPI
sequence,measurement,setting,value
GGCGCG,binding signal,[1],0.72
same,binding signal,[2],0.587
same,binding signal,[3],0.651
GGCAGT,binding signal,[1],0.563
same,binding signal,[2],0.524
same,binding signal,[3],0.491
CCGAGA,binding signal,[1],0.677
same,binding signal,[2],0.622
same,binding signal,[3],0.621
GCGCCA,binding signal,[1],0.74
same,binding signal,[2],0.792
same,binding signal,[3],0.716
CCGGGA,binding signal,[1],0.457
same,binding signal,[2],0.451
same,binding signal,[3],0.728
TCGGTC,binding signal,[1],0.543
same,binding signal,[2],0.558
same,binding signal,[3],0.566
ACGGCG,binding signal,[1],0.81
same,binding signal,[2],0.72
same,binding signal,[3],0.758
AAGACG,binding signal,[1],0.717
same,binding signal,[2],0.784
same,binding signal,[3],0.725
GACGGG,binding signal,[1],0.407
same,binding signal,[2],0.462
same,binding signal,[3],0.452
CGGTCG,binding signal,[1],0.404
same,binding signal,[2],0.386
same,binding signal,[3],0.384
GGGTAG,binding signal,[1],0.773
same,binding signal,[2],0.649
same,binding signal,[3],0.663
GTTGTG,binding signal,[1],0.975
same,binding signal,[2],0.877
same,binding signal,[3],0.925
ACCAGA,binding signal,[1],0.887
same,binding signal,[2],0.914
same,binding signal,[3],0.853
ATCGAG,binding signal,[1],0.862
same,binding signal,[2],0.855
same,binding signal,[3],0.823
TCGGGT,binding signal,[1],0.549
same,binding signal,[2],0.664
same,binding signal,[3],0.621
GCATGG,binding signal,[1],0.93
same,binding signal,[2],0.847
same,binding signal,[3],0.745
TCAGGT,binding signal,[1],0.926
same,binding signal,[2],0.91
same,binding signal,[3],0.92
GACCAC,binding signal,[1],0.845
same,binding signal,[2],0.883
same,binding signal,[3],0.931
AGTCAC,binding signal,[1],0.725
same,binding signal,[2],0.756
same,binding signal,[3],0.721
GGACCA,binding signal,[1],0.77
same,binding signal,[2],0.758
same,binding signal,[3],0.781
CGGCGT,binding signal,[1],0.824
same,binding signal,[2],0.899
same,binding signal,[3],0.806
TAGGCG,binding signal,[1],0.63
same,binding signal,[2],0.572
same,binding signal,[3],0.597
CCCAGG,binding signal,[1],0.714
same,binding signal,[2],0.817
same,binding signal,[3],0.666
GACAAT,binding signal,[1],0.99
same,binding signal,[2],0.951
same,binding signal,[3],0.888
CAGACA,binding signal,[1],0.896
same,binding signal,[2],0.891
same,binding signal,[3],0.83
GGGAAT,binding signal,[1],0.77
same,binding signal,[2],0.758
same,binding signal,[3],0.752
TGAGGT,binding signal,[1],0.628
same,binding signal,[2],0.631
same,binding signal,[3],0.58
GGCTGT,binding signal,[1],0.843
same,binding signal,[2],0.84
same,binding signal,[3],0.794
AGTCAG,binding signal,[1],0.482
same,binding signal,[2],0.487
same,binding signal,[3],0.45
GAGATG,binding signal,[1],0.708
same,binding signal,[2],0.716
same,binding signal,[3],0.657
CGCATA,binding signal,[1],0.716
same,binding signal,[2],0.697
same,binding signal,[3],0.728
CGCAGC,binding signal,[1],0.839
same,binding signal,[2],0.834
same,binding signal,[3],0.797
CGTAAG,binding signal,[1],0.729
same,binding signal,[2],0.752
same,binding signal,[3],0.684
AGACAG,binding signal,[1],0.547
same,binding signal,[2],0.499
same,binding signal,[3],0.492
CCATGT,binding signal,[1],0.845
same,binding signal,[2],0.873
same,binding signal,[3],0.789
CAATCG,binding signal,[1],0.922
same,binding signal,[2],0.881
same,binding signal,[3],0.772

# Reformatted: results already given
sequence	measurement	setting	value
AAGACG	binding signal	[2]	0.784
TGAGGT	binding signal	[3]	0.58
CGTAAG	binding signal	[2]	0.752
